Results are given in words; binding and its absence hold for the method and conditions named. In cells and extracts the contact can be indirect. These calls come from enrichment with a bait or labelling near it, and not all partners need be listed.
Assays:
[1] = target: SHP2 (bait of the co-IP for mass analysis) (UniProt Q06124); test: affinity purification with mass spectrometry; mass analysis of SHP2 co-IP proteins (Supplemental Figure 2B); cells not given
[2] = target: SHP2, bait of the co-immunoprecipitate analysed by mass spectrometry (human (in HEK293T)) (UniProt Q06124); test: affinity purification with mass spectrometry; SHP2 co-immunoprecipitate from lysates of HEK293T cells; SDS-PAGE, in-gel digestion, mass spectrometry (Maxquant)

Protein sequences, listed by entry. Tags and fused reporters are not part of them.
UniProt P61081: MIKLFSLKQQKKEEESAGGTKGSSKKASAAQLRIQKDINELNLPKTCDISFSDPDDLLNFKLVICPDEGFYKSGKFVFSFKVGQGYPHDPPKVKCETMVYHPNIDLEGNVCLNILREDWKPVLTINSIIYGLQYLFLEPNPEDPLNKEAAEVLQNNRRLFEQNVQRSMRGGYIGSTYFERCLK

| Substance | binding [1] | binding [2] |
| --- | --- | --- |
| NEDD8-conjugating E2 UBE2M (from UniProt P61081 1-183) (enzyme) | binds |  |
| UBE2M (NEDD8-conjugating E2) (from UniProt P61081 1-183) (enzyme) |  | binds |

Source: publication PMC9927946
